Measurements published in publication PMC2423482, “UDP-N-Acetylglucosamine 2-Epimerase/N-Acetylmannosamine Kinase (GNE) Binds to Alpha-Actinin 1: Novel Pathways in Skeletal Muscle?” (PLoS ONE, 2008).
No constants are given. Whether binding was seen depends on the method and setting. Sequences can lack the tags named with a protein.

Chains of the proteins cited; added tags and fusions are not shown. Residues count along the entry.
UniProt P02769, residues 25-607: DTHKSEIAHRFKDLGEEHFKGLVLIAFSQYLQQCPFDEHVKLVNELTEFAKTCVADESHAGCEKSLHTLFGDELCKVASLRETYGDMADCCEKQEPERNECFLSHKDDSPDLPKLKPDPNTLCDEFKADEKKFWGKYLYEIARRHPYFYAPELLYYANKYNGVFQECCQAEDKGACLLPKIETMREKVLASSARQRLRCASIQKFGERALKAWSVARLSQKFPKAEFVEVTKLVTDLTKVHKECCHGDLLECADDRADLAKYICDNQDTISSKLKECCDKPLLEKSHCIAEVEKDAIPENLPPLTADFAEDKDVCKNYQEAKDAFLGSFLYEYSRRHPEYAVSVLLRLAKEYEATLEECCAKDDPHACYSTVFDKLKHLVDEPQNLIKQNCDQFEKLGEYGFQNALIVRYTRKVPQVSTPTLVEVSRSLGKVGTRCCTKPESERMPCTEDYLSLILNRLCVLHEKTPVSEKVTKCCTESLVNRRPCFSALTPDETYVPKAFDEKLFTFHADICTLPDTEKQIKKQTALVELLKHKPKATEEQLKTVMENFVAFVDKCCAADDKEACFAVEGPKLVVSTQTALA
UniProt P00337: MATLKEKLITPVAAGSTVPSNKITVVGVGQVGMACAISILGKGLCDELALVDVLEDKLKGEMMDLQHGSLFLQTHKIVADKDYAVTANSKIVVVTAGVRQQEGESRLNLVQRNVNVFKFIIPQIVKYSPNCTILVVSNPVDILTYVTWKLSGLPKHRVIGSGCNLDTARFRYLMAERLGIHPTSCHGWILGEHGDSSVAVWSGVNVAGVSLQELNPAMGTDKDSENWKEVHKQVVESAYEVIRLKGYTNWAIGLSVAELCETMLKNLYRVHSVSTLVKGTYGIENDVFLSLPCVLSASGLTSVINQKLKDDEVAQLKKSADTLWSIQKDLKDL

How the values were obtained:
[1] = target: T1, His-tagged wild type UDP-N-acetylglucosamine 2-epimerase/N-acetylmannosamine kinase (GNE) (human) (UniProt Q9Y223); experiment: SPR; BIAcore 3000, CM5 chip, 25°C; GNE immobilised by amine coupling (up to 600 RU); Tris buffer (20 mM Tris pH 7.5, 100-300 mM NaCl, 0.1 mM DTT, 2 mM CaCl2); 30 µl/min; 1:1 Langmuir model; both purified
T1 sequence: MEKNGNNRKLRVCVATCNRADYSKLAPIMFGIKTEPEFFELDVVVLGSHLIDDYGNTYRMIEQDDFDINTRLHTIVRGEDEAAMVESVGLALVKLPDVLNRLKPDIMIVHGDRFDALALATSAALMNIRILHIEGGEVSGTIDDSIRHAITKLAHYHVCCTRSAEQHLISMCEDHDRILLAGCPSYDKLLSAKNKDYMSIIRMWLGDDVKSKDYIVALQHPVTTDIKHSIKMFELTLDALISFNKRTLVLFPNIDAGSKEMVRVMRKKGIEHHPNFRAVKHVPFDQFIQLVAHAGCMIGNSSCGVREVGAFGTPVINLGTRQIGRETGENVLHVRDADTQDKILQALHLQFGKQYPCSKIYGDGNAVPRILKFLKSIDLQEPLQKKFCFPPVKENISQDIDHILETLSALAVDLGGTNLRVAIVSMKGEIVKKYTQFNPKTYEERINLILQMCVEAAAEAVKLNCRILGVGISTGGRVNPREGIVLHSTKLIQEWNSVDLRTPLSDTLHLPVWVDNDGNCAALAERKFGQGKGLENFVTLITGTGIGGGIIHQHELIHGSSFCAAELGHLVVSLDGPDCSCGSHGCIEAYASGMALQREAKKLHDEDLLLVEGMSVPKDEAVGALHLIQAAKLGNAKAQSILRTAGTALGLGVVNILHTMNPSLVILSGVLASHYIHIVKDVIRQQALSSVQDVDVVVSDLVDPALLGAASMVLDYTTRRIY

[2] = target: T1, His-tagged wild type UDP-N-acetylglucosamine 2-epimerase/N-acetylmannosamine kinase (GNE) (human); experiment: SPR; BIAcore; GNE immobilised; LDH-B 1-27 µM injected in different buffers (Tris HEPES, PBS or NaPi); both purified

Question: “bovine serum albumin (BSA) (from UniProt P02769 25-607)” was tested. Which binding [1] did it give?
Answer: Its binding is “no binding (tested: 1–10 µM)”.

Question: With “recombinant chicken LDH-B protein (from UniProt P00337 1-333) (enzyme)” as the substance, how does the binding [2] read?
Answer: The binding was “no binding (tested: 1–27 µM)”.
